According to patent US20090143418A1, “Compositions and Methods for Preventing and Treating Hair Growth Cycle-Related Conditions” (THE REGENTS OF THE UNIVERSITY OF MICHIGAN, priority 2007, published 2009):
At least one structure is not confirmed: it was looked up by name or label, or the drawing left a doubt.

Legend:
[1] = test system: recipient mice; experiment: Hair graying after 11.2 grays irradiation and bone marrow transplantation; type: in vivo, mouse
[2] = test system: Ink4a-ARF-deficient and heterozygous mice; experiment: Hair graying after irradiation and transplant in Ink4a-ARF heterozygous or homozygous null recipients; type: in vivo, mouse; conditions: 0.4 mg/kg
[3] = test system: hirsutism; conditions: cited from earlier work

Compound | hair graying ([1]; 0.4 mg/kg/day i.p. for four months) | hair graying ([1]; 4 mg/kg/day i.p. for four months (0.4 mg/kg every other day first two weeks)) | protection from hair graying [2] | patients in whom treatment is effective [3] [%]
CO[C@H]1C[C@@H]2CC[C@@H](C)[C@@](O)(O2)C(=O)C(=O)N2CCCC[C@H]2C(=O)O[C@H]([C@H](C)C[C@@H]2CC[C@@H](O)[C@H](OC)C2)CC(=O)[C@H](C)/C=C(\C)[C@@H](O)[C@@H](OC)C(=O)[C@H](C)C[C@H](C)/C=C/C=C/C=C/1C [Rapamycin] | onset of graying was delayed and the extent of graying lessened | Hair graying was prevented | able to protect the Ink4a-ARF-deficient and heterozygous mice from hair graying equally | 
NCCCC(N)(C(=O)O)C(F)F (stereo not shown) [Eflornithine] |  |  |  | 30
